Patent US12582132B2, “Germination/sprouting and fruit ripening regulators” (The United States of America, as represented by the …, priority 2021, dated 2026)

System: Strawberry fruit (Fragaria x ananassa CV. Albion)
Assay: Treatment of strawberry fruit by dipping: fruit ripening
Format: in vivo
Details: CAD-treated, ABA-treated or mock-treated
Experimental: Strawberry plants (Fragaria x ananassa CV. Albion) were grown in a greenhouse at 28° C. and 14-hour light/10-hour dark conditions. […] Fruits were allowed to continue growing on the plants. FIG. 1 depicts images of strawberry fruit development under standard conditions.
FIG. 2A to FIG. 2F depict images of strawberries treated with either 10 μM CAD in 0.1% TRITON X-100 surfactant; 1 mM ABA in 0.1% TRITON X-100 surfactant; or buffer (0.1% TRITON X-100 surfactant) without chemical (mock-treated). […] The CAD dosage was lower than that of ABA (10 μM vs. 1 mM), and CAD stimulated fruit ripening faster than did ABA. […] In contrast, ABA-treated fruit started to turn red 9 DAT, and reached full red 11 DAT.

For CC1=CC(=O)CC(C)(C)[C@@]1(O)/C=C/C(C)=C\C(=O)O [ABA, abscisic acid, reference compound], the “difference in fresh weight of strawberry fruit” value was “no difference” and the “difference in sugar content of strawberry fruit” value was “no difference”.

In the case of CCc1cc(Br)ccc1NC(=O)c1ccn(CC)n1 [CAD, N-(4-bromo-2-ethylphenyl)-1-ethyl-1H-pyrazole-3-carboxamide], the “difference in fresh weight of strawberry fruit” value is reported as “no difference” and the “difference in sugar content of strawberry fruit” value is reported as “no difference”.
